Source: patent US8663608B2, “Hydroxytyrosol compounds” (University of Cape Town, priority 2009, dated 2014)
At least one compound was matched to its structure with a doubt left.

What was measured:
[1] = DPPH radical scavenging assay; assay type: biochemical; details: 0.002M sample
Description: The DPPH assay is based on the change in absorbance at 515 nm, upon reduction of the DPPH radical, by an antioxidant. The antioxidant activity of a putative antioxidant is measured by monitoring the decrease in absorbance when the colour of the solution fades. In this assay, the reaction between the test antioxidant and DPPH radical is allowed to continue until it reaches a steady state. The amount of the radical quenched when steady state is reached is dependent on the antioxidant capacity and the concentration of the antioxidant. 100 μl (1 mg/3 ml) of the respective sample was added to 3.9 ml DPPH solution (25 mg/L in methanol). The decrease in absorbance at 515 nm was monitored using a Unicam UV-visible spectrophotometer, until the reaction reached steady state.

Bax = experiment: Western blot of Bax expression in UVA-irradiated HaCaTs; assay type: cell-based, human; details: 1000 μM
From the text: (§1) Apoptosis can take place through the extrinsic pathway or the intrinsic pathway. The extrinsic pathway involves transmembrane receptor-mediated interactions which involve members of the tumour necrosis factor (TNF). The intrinsic pathway is a mitochondrial-initiated event and thus is of interest for this study. The intrinsic pathway can progress in a caspase-dependent or independent way. The caspase-independent route involves a protein called AIF which when released from the mitochondria, translocates directly to the nucleus and induces apoptosis. The alternative caspase-dependent route involves members of the Bcl-2 family of proteins. This family of proteins is responsible for regulating the permeability of the mitochondrial membrane and can be either pro-apoptotic or anti-apoptotic; Bcl-2 is anti-apoptotic while Bax is pro-apoptotic. The cells' sensitivity to apoptotic stimuli depends on the balance of pro-apoptotic (Bax) and anti-apoptotic (Bcl-2) proteins. […] Protein extraction was conducted and proteins were quantified using the BCA method. […] Alpha tubilin was used as a loading control in each experiment to ensure that the results were quantified correctly. Since the Western blot results are quantified by band size, it is important to ensure that each sample has the same amount of protein when loaded and the loading control helps to determine this. […]

Bcl-2 = experiment: Western blot of Bcl-2 expression in UVA-irradiated HaCaTs; assay type: cell-based, human
From the text: as §1

AIF = experiment: Western blot of AIF expression in UVA-irradiated HaCaTs; assay type: cell-based, human; details: 200 μM
From the text: as §1

In the case of OCCc1ccc(O)c(O)c1 [Hydroxytyrosol], the “Radical Scavenging Activity (%)” value ([1]; compared to standard ascorbic acid (100%)) is reported as 33.2%, the “Final time of reaction” value ([1]; time to steady state) is reported as 5 min and the “Bax expression levels in relation to the control” value (Bax) is reported as “same expression levels as the control”. The “Bcl-2 expression relative to the control” value (Bcl-2; 200 μM) was “normal levels of expression”, the “Bcl-2 expression relative to the control” value (Bcl-2; 500 μM) was “normal levels of expression” and the “AIF levels of expression in relation to the control” value (AIF) was “normal levels”.
